B1: endogenous ASPP1 (HEK) (protein, UniProt Q96KQ4 1-1090)
chain: MMPMILTVFLSNNEQILTEVPITPETTCRDVVEFCKEPGEGSCHLAEVWRGNERPIPFDHMMYEHLQKWGPRREEVKFFLRHEDSPTENSEQGGRQTQEQRTQRNVINVPGEKRTENGVGNPRVELTLSELQDMAARQQQQIENQQQMLVAKEQRLHFLKQQERRQQQSISENEKLQKLKERVEAQENKLKKIRAMRGQVDYSKIMNGNLSAEIERFSAMFQEKKQEVQTAILRVDQLSQQLEDLKKGKLNGFQSYNGKLTGPAAVELKRLYQELQIRNQLNQEQNSKLQQQKELLNKRNMEVAMMDKRISELRERLYGKKIQLNRVNGTSSPQSPLSTSGRVAAVGPYIQVPSAGSFPVLGDPIKPQSLSIASNAAHGRSKSANDGNWPTLKQNSSSSVKPVQVAGADWKDPSVEGSVKQGTVSSQPVPFSALGPTEKPGIEIGKVPPPIPGVGKQLPPSYGTYPSPTPLGPGSTSSLERRKEGSLPRPSAGLPSRQRPTLLPATGSTPQPGSSQQIQQRISVPPSPTYPPAGPPAFPAGDSKPELPLTVAIRPFLADKGSRPQSPRKGPQTVNSSSIYSMYLQQATPPKNYQPAAHSALNKSVKAVYGKPVLPSGSTSPSPLPFLHGSLSTGTPQPQPPSESTEKEPEQDGPAAPADGSTVESLPRPLSPTKLTPIVHSPLRYQSDADLEALRRKLANAPRPLKKRSSITEPEGPGGPNIQKLLYQRFNTLAGGMEGTPFYQPSPSQDFMGTLADVDNGNTNANGNLEELPPAQPTAPLPAEPAPSSDANDNELPSPEPEELICPQTTHQTAEPAEDNNNNVATVPTTEQIPSPVAEAPSPGEEQVPPAPLPPASHPPATSTNKRTNLKKPNSERTGHGLRVRFNPLALLLDASLEGEFDLVQRIIYEVEDPSKPNDEGITPLHNAVCAGHHHIVKFLLDFGVNVNAADSDGWTPLHCAASCNSVHLCKQLVESGAAIFASTISDIETAADKCEEMEEGYIQCSQFLYGVQEKLGVMNKGVAYALWDYEAQNSDELSFHEGDALTILRRKDESETEWWWARLGDREGYVPKNLLGLYPRIKPRQRTLA
B2: Nidogen 1 (protein, UniProt P14543 29-1247)
chain: LSRQELFPFGPGQGDLELEDGDDFVSPALELSGALRFYDRSDIDAVYVTTNGIIATSEPPAKESHPGLFPPTFGAVAPFLADLDTTDGLGKVYYREDLSPSITQRAAECVHRGFPEISFQPSSAVVVTWESVAPYQGPSRDPDQKGKRNTFQAVLASSDSSSYAIFLYPEDGLQFHTTFSKKENNQVPAVVAFSQGSVGFLWKSNGAYNIFANDRESVENLAKSSNSGQQGVWVFEIGSPATTNGVVPADVILGTEDGAEYDDEDEDYDLATTRLGLEDVGTTPFSYKALRRGGADTYSVPSVLSPRRAATERPLGPPTERTRSFQLAVETFHQQHPQVIDVDEVEETGVVFSYNTDSRQTCANNRHQCSVHAECRDYATGFCCSCVAGYTGNGRQCVAEGSPQRVNGKVKGRIFVGSSQVPIVFENTDLHSYVVMNHGRSYTAISTIPETVGYSLLPLAPVGGIIGWMFAVEQDGFKNGFSITGGEFTRQAEVTFVGHPGNLVIKQRFSGIDEHGHLTIDTELEGRVPQIPFGSSVHIEPYTELYHYSTSVITSSSTREYTVTEPERDGASPSRIYTYQWRQTITFQECVHDDSRPALPSTQQLSVDSVFVLYNQEEKILRYALSNSIGPVREGSPDALQNPCYIGTHGCDTNAACRPGPRTQFTCECSIGFRGDGRTCYDIDECSEQPSVCGSHTICNNHPGTFRCECVEGYQFSDEGTCVAVVDQRPINYCETGLHNCDIPQRAQCIYTGGSSYTCSCLPGFSGDGQACQDVDECQPSRCHPDAFCYNTPGSFTCQCKPGYQGDGFRCVPGEVEKTRCQHEREHILGAAGATDPQRPIPPGLFVPECDAHGHYAPTQCHGSTGYCWCVDRDGREVEGTRTRPGMTPPCLSTVAPPIHQGPAVPTAVIPLPPGTHLLFAQTGKIERLPLEGNTMRKTEAKAFLHVPAKVIIGLAFDCVDKMVYWTDITEPSIGRASLHGGEPTTIIRQDLGSPEGIAVDHLGRNIFWTDSNLDRIEVAKLDGTQRRVLFETDLVNPRGIVTDSVRGNLYWTDWNRDNPKIETSYMDGTNRRILVQDDLGLPNGLTFDAFSSQLCWVDAGTNRAECLNPSQPSRRKALEGLQYPFAVTSYGKNLYFTDWKMNSVVALDLAISKETDAFQPHKQTRLYGITTALSQCPQGHNYCSVNNGGCTHLCLATPGSRTCRCPDNTLGVDCIEQK
B3: EH-domain containing 4 (protein, UniProt Q9H223 1-541)
chain: MFSWMGRQAGGRERAGGADAVQTVTGGLRSLYLRKVLPLEEAYRFHEFHSPALEDADFENKPMILLVGQYSTGKTTFIRYLLEQDFPGMRIGPEPTTDSFIAVMYGETEGSTPGNALVVDPKKPFRKLSRFGNAFLNRFMCSQLPNQVLKSISVIDSPGILSGEKQRISRGYDFCQVLQWFAERVDRIILLFDAHKLDISDEFSEAIKAFRGQDDKIRVVLNKADQVDTQQLMRVYGALMWSLGKVINTPEVLRVYIGSFWAQPLQNTDNRRLFEAEAQDLFRDIQSLPQKAAVRKLNDLIKRARLAKVHAYIISYLKKEMPSVFGKENKKRELISRLPEIYIQLQREYQISAGDFPEVKAMQEQLENYDFTKFHSLKPKLIEAVDNMLSNKISPLMNLISQEETSTPTQLVQGGAFDGTTEGPFNQGYGEGAKEGADEEEWVVAKDKPVYDELFYTLSPINGKISGVNAKKEMVTSKLPNSVLGKIWKLADCDCDGMLDEEEFALAKHLIKIKLDGYELPSSLPPHLVPPSHRKSLPKAD
B4: HRAS1-related cluster protein 1 (protein, UniProt Q02833 1-373)
chain: MLLGLAAMELKVWVDGIQRVVCGVSEQTTCQEVVIALAQAIGQTGRFVLVQRLREKERQLLPQECPVGAQATCGQFASDVQFVLRRTGPSLAGRPSSDSCPPPERCLIRASLPVKPRAALGCEPRKTLTPEPAPSLSRPGPAAPVTPTPGCCTDLRGLELRVQRNAEELGHEAFWEQELRREQAREREGQARLQALSAATAEHAARLQALDAQARALEAELQLAAEAPGPPSPMASATERLHQDLAVQERQSAEVQGSLALVSRALEAAERALQAQAQELEELNRELRQCNLQQFIQQTGAALPPPPRPDRGPPGTQGPLPPAREESLLGAPSESHAGAQPRPRGGPHDAELLEVAAAPAPEWCPLAAQPQAL
B5: Pleckstrin Homology Domain Containing, Family A Member 5 (protein, UniProt Q9HAU0 1-1116)
chain: MAADLNLEWISLPRSWTYGITRGGRVFFINEEAKSTTWLHPVTGEAVVTGHRRQSTDLPTGWEEAYTFEGARYYINHNERKVTCKHPVTGQPSQDNCIFVVNEQTVATMTSEEKKERPISMINEASNYNVTSDYAVHPMSPVGRTSRASKKVHNFGKRSNSIKRNPNAPVVRRGWLYKQDSTGMKLWKKRWFVLSDLCLFYYRDEKEEGILGSILLPSFQIALLTSEDHINRKYAFKAAHPNMRTYYFCTDTGKEMELWMKAMLDAALVQTEPVKRVDKITSENAPTKETNNIPNHRVLIKPEIQNNQKNKEMSKIEEKKALEAEKYGFQKDGQDRPLTKINSVKLNSLPSEYESGSACPAQTVHYRPINLSSSENKIVNVSLADLRGGNRPNTGPLYTEADRVIQRTNSMQQLEQWIKIQKGRGHEEETRGVISYQTLPRNMPSHRAQIMARYPEGYRTLPRNSKTRPESICSVTPSTHDKTLGPGAEEKRRSMRDDTMWQLYEWQQRQFYNKQSTLPRHSTLSSPKTMVNISDQTMHSIPTSPSHGSIAAYQGYSPQRTYRSEVSSPIQRGDVTIDRRHRAHHPKHVYVPDRRSVPAGLTLQSVSPQSLQGKTLSQDEGRGTLYKYRPEEVDIDAKLSRLCEQDKVVHALEEKLQQLHKEKYTLEQALLSASQEIEMHADNPAAIQTVVLQRDDLQNGLLSTCRELSRATAELERAWREYDKLEYDVTVTRNQMQEQLDHLGEVQTESAGIQRAQIQKELWRIQDVMEGLSKHKQQRGTTEIGMIGSKPFSTVKYKNEGPDYRLYKSEPELTTVAEVDESNGEEKSEPVSEIETSVVKGSHFPVGVVPPRAKSPTPESSTIASYVTLRKTKKMMDLRTERPRSAVEQLCLAESTRPRMTVEEQMERIRRHQQACLREKKKGLNVIGASDQSPLQSPSNLRDNPFRTTQTRRRDDKELDTAIRENDVKPDHETPATEIVQLKETEPQNVDFSKELKKTENISYEMLFEPEPNGVNSVEMMDKERNKDKMPEDVTFSPQDETQTANHKPEEHPEENTKNSVDEQEETVISYESTPEVSRGNQTMAVKSLSPSPESSASPVPSTQPQLTEGSHFMCV

Amino acid sequences for entries named in this document (tags omitted). Residues count along the entry.
UniProt P34741, residues 19-201: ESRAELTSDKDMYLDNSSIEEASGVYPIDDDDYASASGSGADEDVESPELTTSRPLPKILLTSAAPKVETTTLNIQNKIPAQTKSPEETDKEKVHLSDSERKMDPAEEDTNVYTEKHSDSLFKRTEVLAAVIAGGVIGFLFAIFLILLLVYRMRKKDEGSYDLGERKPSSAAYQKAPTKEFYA
UniProt P62136: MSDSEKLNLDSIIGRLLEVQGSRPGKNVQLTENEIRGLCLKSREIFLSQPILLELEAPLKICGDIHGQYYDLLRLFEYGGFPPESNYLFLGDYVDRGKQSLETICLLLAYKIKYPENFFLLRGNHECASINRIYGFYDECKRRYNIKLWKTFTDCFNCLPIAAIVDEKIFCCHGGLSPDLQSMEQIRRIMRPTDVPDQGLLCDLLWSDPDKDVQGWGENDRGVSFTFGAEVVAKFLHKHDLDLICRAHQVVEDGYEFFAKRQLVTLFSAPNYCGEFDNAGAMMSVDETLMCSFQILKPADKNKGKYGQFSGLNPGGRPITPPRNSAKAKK
UniProt Q12923: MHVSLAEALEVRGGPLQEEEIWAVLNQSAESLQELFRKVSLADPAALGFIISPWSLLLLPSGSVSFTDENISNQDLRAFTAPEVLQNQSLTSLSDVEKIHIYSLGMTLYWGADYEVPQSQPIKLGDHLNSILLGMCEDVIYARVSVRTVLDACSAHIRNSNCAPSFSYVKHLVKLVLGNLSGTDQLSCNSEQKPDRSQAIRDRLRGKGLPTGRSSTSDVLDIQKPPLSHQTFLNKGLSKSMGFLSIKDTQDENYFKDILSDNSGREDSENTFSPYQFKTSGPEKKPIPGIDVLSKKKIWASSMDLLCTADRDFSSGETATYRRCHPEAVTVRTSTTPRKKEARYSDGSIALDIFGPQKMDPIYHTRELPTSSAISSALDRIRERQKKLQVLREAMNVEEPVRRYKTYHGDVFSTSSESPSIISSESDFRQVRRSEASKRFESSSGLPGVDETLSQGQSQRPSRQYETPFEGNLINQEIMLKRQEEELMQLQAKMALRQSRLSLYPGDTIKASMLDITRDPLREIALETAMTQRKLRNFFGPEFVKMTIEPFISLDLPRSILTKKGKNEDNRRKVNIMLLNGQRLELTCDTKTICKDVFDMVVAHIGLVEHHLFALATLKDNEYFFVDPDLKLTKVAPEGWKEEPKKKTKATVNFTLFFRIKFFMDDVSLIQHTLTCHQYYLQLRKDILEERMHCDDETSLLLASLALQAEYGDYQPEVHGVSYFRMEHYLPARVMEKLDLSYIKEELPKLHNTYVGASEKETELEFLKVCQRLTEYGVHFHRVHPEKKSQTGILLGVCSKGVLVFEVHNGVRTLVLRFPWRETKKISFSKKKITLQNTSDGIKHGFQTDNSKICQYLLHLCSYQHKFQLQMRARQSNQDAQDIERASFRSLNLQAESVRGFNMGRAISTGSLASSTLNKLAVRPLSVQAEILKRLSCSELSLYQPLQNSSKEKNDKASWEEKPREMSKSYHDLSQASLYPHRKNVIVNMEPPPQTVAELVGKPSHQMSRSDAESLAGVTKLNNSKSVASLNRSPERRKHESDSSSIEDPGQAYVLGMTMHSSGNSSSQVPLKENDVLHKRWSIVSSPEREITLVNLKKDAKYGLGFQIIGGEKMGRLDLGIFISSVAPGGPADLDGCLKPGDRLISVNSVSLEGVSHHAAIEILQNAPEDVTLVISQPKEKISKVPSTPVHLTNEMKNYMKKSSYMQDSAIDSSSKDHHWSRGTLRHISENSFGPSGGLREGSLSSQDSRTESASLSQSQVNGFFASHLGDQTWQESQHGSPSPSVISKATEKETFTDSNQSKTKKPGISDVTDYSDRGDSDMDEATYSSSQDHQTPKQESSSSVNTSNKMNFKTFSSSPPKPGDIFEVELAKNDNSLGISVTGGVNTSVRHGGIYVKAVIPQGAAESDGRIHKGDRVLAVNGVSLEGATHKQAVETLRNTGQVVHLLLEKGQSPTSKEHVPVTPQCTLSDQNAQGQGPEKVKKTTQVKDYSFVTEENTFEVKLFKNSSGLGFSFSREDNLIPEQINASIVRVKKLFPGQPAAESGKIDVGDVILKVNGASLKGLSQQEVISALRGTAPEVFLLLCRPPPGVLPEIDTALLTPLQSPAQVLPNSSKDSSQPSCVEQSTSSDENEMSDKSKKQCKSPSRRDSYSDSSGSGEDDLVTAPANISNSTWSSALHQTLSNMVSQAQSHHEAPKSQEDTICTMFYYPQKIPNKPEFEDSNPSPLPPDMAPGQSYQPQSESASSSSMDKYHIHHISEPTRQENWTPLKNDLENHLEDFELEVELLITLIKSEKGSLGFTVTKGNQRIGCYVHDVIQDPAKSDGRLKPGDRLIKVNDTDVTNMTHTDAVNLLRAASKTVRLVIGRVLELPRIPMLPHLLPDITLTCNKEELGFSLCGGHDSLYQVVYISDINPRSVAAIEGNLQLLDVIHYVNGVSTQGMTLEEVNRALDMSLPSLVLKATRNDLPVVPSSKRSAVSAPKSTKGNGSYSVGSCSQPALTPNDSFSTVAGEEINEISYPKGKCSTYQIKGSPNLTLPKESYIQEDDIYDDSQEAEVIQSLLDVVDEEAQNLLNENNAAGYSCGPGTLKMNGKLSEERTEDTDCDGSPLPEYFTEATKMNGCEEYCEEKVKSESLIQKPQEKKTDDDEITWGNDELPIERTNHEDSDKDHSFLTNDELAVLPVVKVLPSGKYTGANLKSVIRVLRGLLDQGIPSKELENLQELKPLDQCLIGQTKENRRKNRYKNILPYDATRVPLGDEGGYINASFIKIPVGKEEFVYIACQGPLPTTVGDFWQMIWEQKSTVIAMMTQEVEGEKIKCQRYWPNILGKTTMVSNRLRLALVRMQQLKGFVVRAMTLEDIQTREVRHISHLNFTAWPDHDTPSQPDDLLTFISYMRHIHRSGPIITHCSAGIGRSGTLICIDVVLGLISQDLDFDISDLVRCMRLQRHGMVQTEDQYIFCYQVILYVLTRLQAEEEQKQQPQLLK
UniProt Q9UKB1: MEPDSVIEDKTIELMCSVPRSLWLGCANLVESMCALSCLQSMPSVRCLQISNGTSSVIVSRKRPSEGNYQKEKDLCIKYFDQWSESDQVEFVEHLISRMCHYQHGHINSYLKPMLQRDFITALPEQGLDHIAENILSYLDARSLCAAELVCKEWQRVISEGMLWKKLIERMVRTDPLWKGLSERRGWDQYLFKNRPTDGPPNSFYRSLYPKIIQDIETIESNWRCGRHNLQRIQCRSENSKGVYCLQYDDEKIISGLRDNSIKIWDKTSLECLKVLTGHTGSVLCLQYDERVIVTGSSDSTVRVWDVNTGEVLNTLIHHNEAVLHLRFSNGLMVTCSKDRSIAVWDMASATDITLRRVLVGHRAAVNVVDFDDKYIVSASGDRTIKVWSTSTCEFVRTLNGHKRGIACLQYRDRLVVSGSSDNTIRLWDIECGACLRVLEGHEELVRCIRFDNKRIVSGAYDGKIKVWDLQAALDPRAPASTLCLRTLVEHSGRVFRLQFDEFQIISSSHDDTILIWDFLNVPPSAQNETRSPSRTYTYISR

These are yes or no findings as the source states them, for the method shown. Binding seen in cells or lysates may run through a third protein. A yes stands for co-enrichment or nearness to the bait. Other partners may have been found. Sequences can lack the tags named with a protein.

The target of one test is T1, RASSF10-EYFP (human) (UniProt A6NK89).
T1 sequence: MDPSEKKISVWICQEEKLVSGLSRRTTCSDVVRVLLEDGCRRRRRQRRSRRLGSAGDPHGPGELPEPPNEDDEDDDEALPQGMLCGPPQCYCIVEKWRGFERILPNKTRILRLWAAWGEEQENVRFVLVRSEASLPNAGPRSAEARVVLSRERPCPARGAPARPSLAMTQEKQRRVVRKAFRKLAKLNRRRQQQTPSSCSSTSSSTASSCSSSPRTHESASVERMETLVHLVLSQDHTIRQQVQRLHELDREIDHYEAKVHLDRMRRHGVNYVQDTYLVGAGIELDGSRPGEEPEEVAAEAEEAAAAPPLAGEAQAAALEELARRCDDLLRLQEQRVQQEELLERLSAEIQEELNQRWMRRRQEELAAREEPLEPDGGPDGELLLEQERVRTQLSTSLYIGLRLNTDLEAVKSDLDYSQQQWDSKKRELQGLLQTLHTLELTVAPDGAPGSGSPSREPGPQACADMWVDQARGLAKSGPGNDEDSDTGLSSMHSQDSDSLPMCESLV
As to the kind of experiment: affinity purification with mass spectrometry; RASSF10-EYFP (EYFP alone as control) overexpressed in HEK cells for 24 h, precipitated from lysates with GFP-Trap; NuPAGE, in-gel trypsin digest, reverse-phase nano-LC with ESI mass spectrometry; biological triplicates, high stringency.
As for Syndecan 2 (from UniProt P34741 19-201), the binding entry is “binds”.

“Protein phosphatase 1, catalytic subunit, alpha isoform (from UniProt P62136 1-330)”: the binding result was “binds”.

As to “Protein tyrosine phosphatase, non-receptor type 13 (from UniProt Q12923 1-2485)”, the binding result is reported as “binds”.

For the molecule “F-box and WD-40 domain protein 11 (from UniProt Q9UKB1 1-542)”, the binding entry is “binds”.

A further test concerns the target T1, RASSF10-EYFP (human). Described as above. This is another data set of the same source.
B1: the binding entry is given as “binds”.

Take B2: the binding entry is “binds”.

With B3, the binding entry is recorded as “binds”.

In the case of B4, the binding result was “binds”.

On to B5, for which the binding entry is reported as “binds”.

The record behind these values is article PMC6966473.
